Results as given in the supplement of paper PMC10077471.
The full ranking holds about 1,900 compounds; the median of “excess over highest single agent (ExcessHSA) synergy score, 6x6 matrix” is about -83, and the lowest 2% start at about -370. The list shows a part of the results.

Each compound was assayed on NCI-H446 (assay: excess over highest single agent (ExcessHSA) synergy score, 6x6 matrix; higher = less synergy (more negative = stronger synergy)). Details: 72 h; CellTiter-Glo viability.

SMILES	excess over highest single agent
COc1ccc(Nc2nccc(NCCO)n2)cc1 + Cc1sc2c(c1C)C(c1ccc(Cl)cc1)=N[C@@H](CC(=O)OC(C)(C)C)c1nnc(C)n1-2 [NCGC00250412-19]	81.9
O=C1c2c(O)cc(O)cc2OC(c2ccc(O)c(O)c2)C1O (stereo not drawn) + Cc1sc2c(c1C)C(c1ccc(Cl)cc1)=N[C@@H](CC(=O)OC(C)(C)C)c1nnc(C)n1-2 [NCGC00250412-19]	-160
COC1CCC(N(C(=O)C2CCC(C)CC2)c2cc(C3=CCCCC3)sc2C(=O)O)CC1 (stereo not drawn) + Cc1sc2c(c1C)C(c1ccc(Cl)cc1)=N[C@@H](CC(=O)OC(C)(C)C)c1nnc(C)n1-2 [NCGC00250412-19]	-93.8
C[C@@H]1C(=O)O[C@H]2C[C@@]34[C@H]5C[C@@H](C(C)(C)C)[C@]36[C@@H](OC(=O)[C@@H]6O)O[C@@]4(C(=O)O5)[C@]21O + Cc1sc2c(c1C)C(c1ccc(Cl)cc1)=N[C@@H](CC(=O)OC(C)(C)C)c1nnc(C)n1-2 [NCGC00250412-19]	-1.49
CC(c1cc2ccccc2s1)N(O)C(N)=O (stereo not drawn) + Cc1sc2c(c1C)C(c1ccc(Cl)cc1)=N[C@@H](CC(=O)OC(C)(C)C)c1nnc(C)n1-2 [NCGC00250412-19]	-83.8
CC1=C(/C=C/C(C)=C/C=C/C(C)=C/C(=O)Nc2ccc(O)cc2)C(C)(C)CCC1 + Cc1sc2c(c1C)C(c1ccc(Cl)cc1)=N[C@@H](CC(=O)OC(C)(C)C)c1nnc(C)n1-2 [NCGC00250412-19]	-255
NC(=O)c1ncn([C@@H]2O[C@H](CO)[C@@H](O)[C@H]2O)c1N + Cc1sc2c(c1C)C(c1ccc(Cl)cc1)=N[C@@H](CC(=O)OC(C)(C)C)c1nnc(C)n1-2 [NCGC00250412-19]	-85.2
CN(C)CCC=C1c2ccccc2C=Cc2ccccc21 + Cc1sc2c(c1C)C(c1ccc(Cl)cc1)=N[C@@H](CC(=O)OC(C)(C)C)c1nnc(C)n1-2 [NCGC00250412-19]	-24.8
O=C1c2cccc(O)c2C(=O)c2c(O)cc(CO)cc21 + Cc1sc2c(c1C)C(c1ccc(Cl)cc1)=N[C@@H](CC(=O)OC(C)(C)C)c1nnc(C)n1-2 [NCGC00250412-19]	-83.6
CN(C)CCc1c[nH]c2ccc(C[C@H]3COC(=O)N3)cc12 + Cc1sc2c(c1C)C(c1ccc(Cl)cc1)=N[C@@H](CC(=O)OC(C)(C)C)c1nnc(C)n1-2 [NCGC00250412-19]	-149
CON=C(C(=O)N[C@@H]1C(=O)N2C(C(=O)O)=C(Cn3ccc(=N)n3CCO)CS[C@H]12)c1csc(N)n1 + Cc1sc2c(c1C)C(c1ccc(Cl)cc1)=N[C@@H](CC(=O)OC(C)(C)C)c1nnc(C)n1-2 [NCGC00250412-19]	337
CC(=O)OCC(=O)[C@@]1(O)[C@H](C)C[C@H]2[C@@H]3C=C(C)C4=Cc5c(cnn5-c5ccccc5)C[C@]4(C)[C@H]3[C@@H](O)C[C@@]21C + Cc1sc2c(c1C)C(c1ccc(Cl)cc1)=N[C@@H](CC(=O)OC(C)(C)C)c1nnc(C)n1-2 [NCGC00250412-19]	-98.1
O=C(NC1CCOCC1)c1ccc(-c2cc(-c3c[nH]nc3-c3ccccn3)ccn2)cc1 + Cc1sc2c(c1C)C(c1ccc(Cl)cc1)=N[C@@H](CC(=O)OC(C)(C)C)c1nnc(C)n1-2 [NCGC00250412-19]	91.7
NS(=O)(=O)c1cc2c(cc1Cl)NCNS2(=O)=O + Cc1sc2c(c1C)C(c1ccc(Cl)cc1)=N[C@@H](CC(=O)OC(C)(C)C)c1nnc(C)n1-2 [NCGC00250412-19]	-254
CNNCc1ccc(C(=O)NC(C)C)cc1 + Cc1sc2c(c1C)C(c1ccc(Cl)cc1)=N[C@@H](CC(=O)OC(C)(C)C)c1nnc(C)n1-2 [NCGC00250412-19]	-66.9
O=c1[nH]c(=O)n([C@H]2C[C@H](O)[C@@H](CO)O2)cc1F + Cc1sc2c(c1C)C(c1ccc(Cl)cc1)=N[C@@H](CC(=O)OC(C)(C)C)c1nnc(C)n1-2 [NCGC00250412-19]	-390
COc1cc(C)c(/C=C/C(C)=C/C=C/C(C)=C/C(=O)O)c(C)c1C + Cc1sc2c(c1C)C(c1ccc(Cl)cc1)=N[C@@H](CC(=O)OC(C)(C)C)c1nnc(C)n1-2 [NCGC00250412-19]	-122
CC(C)(F)C[C@H](N[C@@H](c1ccc(-c2ccc(S(C)(=O)=O)cc2)cc1)C(F)(F)F)C(=O)NC1(C#N)CC1 + Cc1sc2c(c1C)C(c1ccc(Cl)cc1)=N[C@@H](CC(=O)OC(C)(C)C)c1nnc(C)n1-2 [NCGC00250412-19]	59.5
CC(=O)OC[C@H]1O[C@@H](n2ccc(=O)[nH]c2=O)[C@H](OC(C)=O)[C@@H]1OC(C)=O + Cc1sc2c(c1C)C(c1ccc(Cl)cc1)=N[C@@H](CC(=O)OC(C)(C)C)c1nnc(C)n1-2 [NCGC00250412-19]	-10.4
CC1(C)[C@@H](O[C@H]2O[C@H](C(=O)O)[C@@H](O)[C@H](O)[C@H]2O[C@@H]2O[C@H](C(=O)O)[C@@H](O)[C@H](O)[C@H]2O)CC[C@]2(C)[C@H]3C(=O)C=C4[C@@H]5C[C@@](C)(C(=O)O)CC[C@]5(C)CC[C@@]4(C)[C@]3(C)CC[C@@H]12 + Cc1sc2c(c1C)C(c1ccc(Cl)cc1)=N[C@@H](CC(=O)OC(C)(C)C)c1nnc(C)n1-2 [NCGC00250412-19]	11.5
COc1cc2nccc(Oc3ccc(NC(=O)Nc4ccc(F)cc4F)c(F)c3)c2cc1OC + Cc1sc2c(c1C)C(c1ccc(Cl)cc1)=N[C@@H](CC(=O)OC(C)(C)C)c1nnc(C)n1-2 [NCGC00250412-19]	-106
C[C@]12C=CC(=O)C=C1CC[C@@H]1[C@@H]2C(=O)C[C@@]2(C)[C@H]1CC[C@]2(O)C(=O)CO + Cc1sc2c(c1C)C(c1ccc(Cl)cc1)=N[C@@H](CC(=O)OC(C)(C)C)c1nnc(C)n1-2 [NCGC00250412-19]	-215
c1ccc2c(Oc3nc(Nc4ccc(N5CCOCC5)cc4)c4ncn(C5CCCCC5)c4n3)cccc2c1 + Cc1sc2c(c1C)C(c1ccc(Cl)cc1)=N[C@@H](CC(=O)OC(C)(C)C)c1nnc(C)n1-2 [NCGC00250412-19]	-45.5

Given in markdown: entries from further up.

| SMILES | excess over highest single agent |
| --- | --- |
| CC(c1cc2ccccc2s1)N(O)C(N)=O (stereo not drawn) + Cc1sc2c(c1C)C(c1ccc(Cl)cc1)=N[C@@H](CC(=O)OC(C)(C)C)c1nnc(C)n1-2 [NCGC00250412-19] | -83.8 |
| O=C(NC1CCOCC1)c1ccc(-c2cc(-c3c[nH]nc3-c3ccccn3)ccn2)cc1 + Cc1sc2c(c1C)C(c1ccc(Cl)cc1)=N[C@@H](CC(=O)OC(C)(C)C)c1nnc(C)n1-2 [NCGC00250412-19] | 91.7 |
